Test [1] concerns the target 4-1BB ligand on 293-VM-14.7 activator cells (gene switched on by gRNA) (human (endogenous in HEK293)) (UniProt P41273). In words: pooled CRISPRa screen, serial magnetic-activated cell sorting (MACS) with bait-coated beads; biotinylated bait ED on streptavidin microbeads; library-transduced 293-VM-14.7 activator cells, 4°C 1.5 h, PBS/0.5% BSA; up to four rounds; read by flow cytometry with antibodies and deep sequencing of gRNAs; original and new stringent gRNA library; only the binder purified. In general terms: In flow cytometry, cells or beads pass a laser one at a time.

Chains of the proteins cited; added tags and fusions are not shown. Residues count along the entry.
UniProt P41273: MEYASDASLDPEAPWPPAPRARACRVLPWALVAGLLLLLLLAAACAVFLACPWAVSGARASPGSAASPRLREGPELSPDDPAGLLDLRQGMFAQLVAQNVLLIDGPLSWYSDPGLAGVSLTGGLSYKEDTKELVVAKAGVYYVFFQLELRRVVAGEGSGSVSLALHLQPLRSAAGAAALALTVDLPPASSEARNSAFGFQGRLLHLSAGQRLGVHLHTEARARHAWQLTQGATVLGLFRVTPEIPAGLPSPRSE
UniProt P34741, residues 19-201: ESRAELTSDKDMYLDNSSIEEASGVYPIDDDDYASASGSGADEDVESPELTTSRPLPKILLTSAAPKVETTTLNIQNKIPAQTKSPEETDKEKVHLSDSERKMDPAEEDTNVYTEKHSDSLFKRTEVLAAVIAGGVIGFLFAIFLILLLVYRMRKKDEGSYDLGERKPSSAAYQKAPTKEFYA
UniProt Q07011, residues 24-189: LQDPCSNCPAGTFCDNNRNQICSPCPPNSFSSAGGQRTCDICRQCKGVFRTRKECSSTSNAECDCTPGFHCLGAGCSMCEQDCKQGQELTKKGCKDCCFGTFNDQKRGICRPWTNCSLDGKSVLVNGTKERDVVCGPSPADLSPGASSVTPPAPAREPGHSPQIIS
UniProt P16410, residues 38-162: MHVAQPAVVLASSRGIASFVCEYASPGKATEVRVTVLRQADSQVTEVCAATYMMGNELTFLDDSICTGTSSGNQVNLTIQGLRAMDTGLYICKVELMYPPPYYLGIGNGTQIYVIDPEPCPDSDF

In test [2] the target is T1, siglec-4 on 293-VM-14.7 activator cells (gene switched on by gRNA) (human (endogenous in HEK293)) (UniProt P20916).
T1 sequence: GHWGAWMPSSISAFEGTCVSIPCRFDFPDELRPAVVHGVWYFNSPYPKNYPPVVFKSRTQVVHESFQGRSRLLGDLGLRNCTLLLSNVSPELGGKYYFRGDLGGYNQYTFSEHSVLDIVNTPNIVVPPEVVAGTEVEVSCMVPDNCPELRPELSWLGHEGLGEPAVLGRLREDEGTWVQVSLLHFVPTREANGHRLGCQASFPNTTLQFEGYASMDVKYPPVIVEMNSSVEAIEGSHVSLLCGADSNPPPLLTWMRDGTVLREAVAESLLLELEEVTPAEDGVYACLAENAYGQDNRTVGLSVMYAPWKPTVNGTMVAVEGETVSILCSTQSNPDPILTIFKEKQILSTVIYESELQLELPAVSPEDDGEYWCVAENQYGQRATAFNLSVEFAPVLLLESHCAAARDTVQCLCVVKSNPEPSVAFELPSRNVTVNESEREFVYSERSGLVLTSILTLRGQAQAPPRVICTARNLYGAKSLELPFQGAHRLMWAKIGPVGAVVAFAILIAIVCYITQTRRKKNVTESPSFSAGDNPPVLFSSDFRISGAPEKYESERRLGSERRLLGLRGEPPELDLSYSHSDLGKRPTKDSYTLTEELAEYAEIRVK
Described as above.

Test [3] deals with human syndecan-2 expressed from a plasmid in HEK293 activator cells (human) (UniProt P34741). Description: condition: 1 μg of biotinylated CTLA4 protein/5 × 10^5 cells in 100 μl; flow cytometry on cells; 1 μg biotinylated CTLA4 protein per 5 × 10^5 transfected HEK293 activator cells in 100 μl PBS/BSA, then APC-streptavidin; only the binder purified.
Test [4] deals with T2, human syndecan-1 expressed from a plasmid in HEK293 activator cells (human) (UniProt P18827).
T2 sequence: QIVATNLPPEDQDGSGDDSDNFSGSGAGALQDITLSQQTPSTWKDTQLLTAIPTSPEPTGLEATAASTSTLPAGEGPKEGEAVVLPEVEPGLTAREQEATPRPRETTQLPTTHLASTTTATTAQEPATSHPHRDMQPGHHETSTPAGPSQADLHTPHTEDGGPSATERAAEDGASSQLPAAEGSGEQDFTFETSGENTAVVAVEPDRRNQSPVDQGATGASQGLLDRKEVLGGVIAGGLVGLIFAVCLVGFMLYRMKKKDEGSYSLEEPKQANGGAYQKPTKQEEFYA
The test is described as above.

No constants are given. Whether binding was seen depends on the method and setting. Some entries that bind do so weakly or less than the wild type.

Regarding “biotinylated 4-1BB ectodomain (4-1BB-CD4d3+4-bio-HIS) (from UniProt Q07011 24-189) (domain or fragment)”, the binding result in test [1] and in test [2] was “binds” throughout.
As for “biotinylated CTLA4 ectodomain (CTLA4-CD4d3+4-bio-HIS) (from UniProt P16410-1 38-162) (domain or fragment)”, the binding result in test [3] and in test [4] was “no binding” each time.
